Source: EP0133795B1 (THE McLEAN HOSPITAL CORPORATION, priority 1983, dated 1985)
Some of these results come from one statement about several compounds together.

Test system: GABA "receptors"
Test: Inhibition of [3H]GABA binding to synaptic membranes from rat cerebellum
Details: in comparison with potent GABA agonists
Protocol: IC50 values were determined by fitting data to linearized transformations, based on including at least two concentrations of antagonists above and below the IC50, with at least triplicate replication per concentration.

Row | Compound | binding affinity to the receptors (in words)
1 | C[C@@H]1C[C@H]2[C@@H]3CCC4=CC(=O)C=C[C@]4(C)[C@@]3(F)[C@@H](O)C[C@]2(C)[C@@]1(O)C(=O)COC(=O)CCCN [Compound 7, Dexamethasone-21-gamma-aminobutyrate] | low binding affinities
2 | (3-Cholesteryl)-gamma-Aminobutyrate [Compound 6] | low binding affinities
